In PMC12227070:
No constants are given. Whether binding was seen depends on the method and setting. Binding can be weak; no strength is given. Where a sequence is shown, tags or fusion partners need not be part of it.

Biological target: T1, GFP-FKBP-Rab25 (UniProt P57735)
T1 sequence: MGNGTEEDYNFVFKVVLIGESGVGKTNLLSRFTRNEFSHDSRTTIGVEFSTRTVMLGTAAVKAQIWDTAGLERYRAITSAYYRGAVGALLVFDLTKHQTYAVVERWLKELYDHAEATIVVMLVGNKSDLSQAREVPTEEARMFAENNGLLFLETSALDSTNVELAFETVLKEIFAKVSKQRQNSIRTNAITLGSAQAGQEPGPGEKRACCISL
Experiment: knock-sideways relocalisation; A2780 nucleofected with pMito-iRFP670-FRB and GFP-FKBP-Rab25 or GFP-FKBP; 200 nM rapamycin for 4 hours; fixed, stained for FMNL1; FMNL1 intensity in mitochondria against cell body

binding: binds weakly
Substance: FMNL1 (formin-like protein 1) (from UniProt O95466-2)
